# The list does not hold the whole screen: it gathers tests that were run many times, whatever their T/C, doses with no T/C, and many T/C values between a quarter and a half above the control. Further doses and runs are listed elsewhere. T/C is the treated group as % of the vehicle group. Some doses have a count of surviving animals in place of a T/C: the source holds a T/C of zero for them, seemingly a mark for toxic or unscored doses. Some survivor counts are full or nearly so, which does not show that the dose was tolerated: survival well below the control is almost never listed, so the zero probably covers shortened survival too. Counts of survivors are from the toxicity check (mostly the fifth day) where no day follows; animals may have died later. Schedules are NCI's codes, read here as Q, the interval in days (D) or hours (H), X, the number of doses. Some molecules as drawn cover several salts, stereoisomers or complexes of the source; a dose is that of the sample tested. Some doses were run more than once; their values stand side by side, smallest first. For survival time, this PubChem deposit counts one and a half times the control or more as active, and values a quarter to a half above the control carry no call in these data; other NCI protocols may use other cut-offs.
# Test system: CD2F1 mice, L1210 leukemia ip, survival T/C
# Test: NCI In Vivo Anticancer Drug Screen. Data for tumor model L1210 Leukemia (intraperitoneal) in CD2F1 (CDF1) mice
# Conditions: higher T/C = longer survival
# Method in brief: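 Mice carrying a transplanted tumor received test compound or vehicle alone. The value is the measurement in the treated group divided by that in the vehicle-treated control group.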
smiles,measurement,setting,value
O=C1c2ccccc2C(=O)c2c(NCCNCCO)ccc(NCCNCCO)c21,survivor count,"T/C endpoint: mean survival time, dose: 128.0 mg/kg/injection, schedule: Q04DX003 (ip), vehicle: water",0 of 6
same,survivor count,"T/C endpoint: mean survival time, dose: 128.0 mg/kg/injection, schedule: Q04DX003 (iv), vehicle: saline",0 of 10
same,survivor count,"T/C endpoint: mean survival time, dose: 250.0 mg/kg/injection, schedule: Q01DX001 (ip), vehicle: saline",2 of 8
same,T/C,"T/C endpoint: median survival time, dose: 0.5 mg/kg/injection, schedule: Q01DX009 (ip), vehicle: water",129 % of control
same,T/C,"T/C endpoint: median survival time, dose: 1.0 mg/kg/injection, schedule: Q01DX009 (ip), vehicle: clinical formulation",130 % of control
same,T/C,"T/C endpoint: median survival time, dose: 1.0 mg/kg/injection, schedule: Q01DX009 (ip), vehicle: saline",141 % of control
same,T/C,"T/C endpoint: median survival time, dose: 1.0 mg/kg/injection, schedule: Q01DX009 (ip), vehicle: water",134 % of control
same,T/C,"T/C endpoint: median survival time, dose: 2.0 mg/kg/injection, schedule: Q01DX009 (ip), vehicle: Klucel (hydroxypropylcellulose) (HPC)",126 % of control
same,T/C,"T/C endpoint: median survival time, dose: 2.0 mg/kg/injection, schedule: Q01DX009 (ip), vehicle: clinical formulation",141 % of control
same,T/C,"T/C endpoint: median survival time, dose: 2.0 mg/kg/injection, schedule: Q01DX009 (ip), vehicle: water",149 % of control
same,T/C,"T/C endpoint: median survival time, dose: 4.0 mg/kg/injection, schedule: Q01DX009 (ip), vehicle: Klucel (hydroxypropylcellulose) (HPC)",137 % of control
same,T/C,"T/C endpoint: median survival time, dose: 8.0 mg/kg/injection, schedule: Q01DX005 (iv), vehicle: clinical formulation",127 % of control
same,T/C,"T/C endpoint: median survival time, dose: 8.0 mg/kg/injection, schedule: Q01DX005 (iv), vehicle: water",128 % of control
same,T/C,"T/C endpoint: median survival time, dose: 8.0 mg/kg/injection, schedule: Q01DX009 (sc), vehicle: Klucel (hydroxypropylcellulose) (HPC), evaluated on day 30",131 and 138 % of control
same,T/C,"T/C endpoint: median survival time, dose: 8.0 mg/kg/injection, schedule: Q01DX009 (sc), vehicle: Klucel (hydroxypropylcellulose) (HPC), evaluated on day 60",139 % of control
same,T/C,"T/C endpoint: median survival time, dose: 8.0 mg/kg/injection, schedule: Q01DX009 (sc), vehicle: water",130 % of control
same,T/C,"T/C endpoint: median survival time, dose: 16.0 mg/kg/injection, schedule: Q01DX005 (iv), vehicle: clinical formulation",144 % of control
same,T/C,"T/C endpoint: median survival time, dose: 16.0 mg/kg/injection, schedule: Q01DX009 (sc), vehicle: Klucel (hydroxypropylcellulose) (HPC)",140 % of control
same,T/C,"T/C endpoint: median survival time, dose: 16.0 mg/kg/injection, schedule: Q01DX009 (sc), vehicle: saline",130 % of control
same,T/C,"T/C endpoint: median survival time, dose: 32.0 mg/kg/injection, schedule: Q01DX009 (ip), vehicle: saline",137 % of control
same,T/C,"T/C endpoint: median survival time, dose: 32.0 mg/kg/injection, schedule: Q01DX009 (sc), vehicle: saline",147 % of control
same,survivor count,"T/C endpoint: median survival time, dose: 64.0 mg/kg/injection, schedule: Q01DX005 (iv), vehicle: clinical formulation",0 of 10
same,survivor count,"T/C endpoint: median survival time, dose: 64.0 mg/kg/injection, schedule: Q01DX005 (iv), vehicle: water",1 of 10
same,survivor count,"T/C endpoint: median survival time, dose: 64.0 mg/kg/injection, schedule: Q01DX009 (ip), vehicle: Klucel (hydroxypropylcellulose) (HPC)",4 of 6 and 5 of 6
same,survivor count,"T/C endpoint: median survival time, dose: 64.0 mg/kg/injection, schedule: Q01DX009 (ip), vehicle: clinical formulation",10 of 10
same,survivor count,"T/C endpoint: median survival time, dose: 64.0 mg/kg/injection, schedule: Q01DX009 (ip), vehicle: water",10 of 10
same,T/C,"T/C endpoint: median survival time, dose: 64.0 mg/kg/injection, schedule: Q01DX009 (sc), vehicle: saline",147 % of control
same,survivor count,"T/C endpoint: median survival time, dose: 128.0 mg/kg/injection, schedule: Q01DX009 (ip), vehicle: Klucel (hydroxypropylcellulose) (HPC)",0 of 6
same,survivor count,"T/C endpoint: median survival time, dose: 128.0 mg/kg/injection, schedule: Q01DX009 (ip), vehicle: clinical formulation",8 of 10
same,survivor count,"T/C endpoint: median survival time, dose: 128.0 mg/kg/injection, schedule: Q01DX009 (ip), vehicle: saline",5 of 6
same,survivor count,"T/C endpoint: median survival time, dose: 128.0 mg/kg/injection, schedule: Q01DX009 (ip), vehicle: water",7 of 10
same,survivor count,"T/C endpoint: median survival time, dose: 128.0 mg/kg/injection, schedule: Q01DX009 (sc), vehicle: Klucel (hydroxypropylcellulose) (HPC)",5 of 6 and 9 of 10
same,T/C,"T/C endpoint: median survival time, dose: 128.0 mg/kg/injection, schedule: Q01DX009 (sc), vehicle: saline",128 % of control
same,survivor count,"T/C endpoint: median survival time, dose: 128.0 mg/kg/injection, schedule: Q01DX009 (sc), vehicle: water",9 of 10
same,survivor count,"T/C endpoint: median survival time, dose: 256.0 mg/kg/injection, schedule: Q01DX005 (oral), vehicle: Klucel (hydroxypropylcellulose) (HPC)",3 of 6
same,survivor count,"T/C endpoint: median survival time, dose: 512.0 mg/kg/injection, schedule: Q01DX005 (oral), vehicle: Klucel (hydroxypropylcellulose) (HPC)",5 of 6 and 6 of 6
same,survivor count,"T/C endpoint: median survival time, dose: 1024.0 mg/kg/injection, schedule: Q01DX005 (oral), vehicle: Klucel (hydroxypropylcellulose) (HPC)",6 of 6
